From the supplement of paper PMC10849652
The other results are listed elsewhere or left out.

Chains of the proteins cited; added tags and fusions are not shown. Lines headed by an entry give the natural chain unless they say otherwise; changes in a name come on top.
UniProt Q01196, whole entry, looked up: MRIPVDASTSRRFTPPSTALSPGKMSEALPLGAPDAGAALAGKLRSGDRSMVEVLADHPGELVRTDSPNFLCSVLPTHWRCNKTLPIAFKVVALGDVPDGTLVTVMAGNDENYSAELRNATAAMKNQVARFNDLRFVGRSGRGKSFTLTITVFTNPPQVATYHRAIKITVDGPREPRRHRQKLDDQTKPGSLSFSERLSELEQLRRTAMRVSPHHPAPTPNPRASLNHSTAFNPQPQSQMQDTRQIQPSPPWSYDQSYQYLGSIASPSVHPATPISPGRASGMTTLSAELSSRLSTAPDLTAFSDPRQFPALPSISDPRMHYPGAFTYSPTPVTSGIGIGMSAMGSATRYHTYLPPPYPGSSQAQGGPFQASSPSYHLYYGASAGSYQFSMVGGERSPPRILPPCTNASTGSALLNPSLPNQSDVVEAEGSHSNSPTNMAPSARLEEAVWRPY
UniProt Q13296: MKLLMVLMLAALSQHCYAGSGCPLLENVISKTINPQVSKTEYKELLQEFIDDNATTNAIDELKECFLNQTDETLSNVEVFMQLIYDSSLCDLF
UniProt P28702: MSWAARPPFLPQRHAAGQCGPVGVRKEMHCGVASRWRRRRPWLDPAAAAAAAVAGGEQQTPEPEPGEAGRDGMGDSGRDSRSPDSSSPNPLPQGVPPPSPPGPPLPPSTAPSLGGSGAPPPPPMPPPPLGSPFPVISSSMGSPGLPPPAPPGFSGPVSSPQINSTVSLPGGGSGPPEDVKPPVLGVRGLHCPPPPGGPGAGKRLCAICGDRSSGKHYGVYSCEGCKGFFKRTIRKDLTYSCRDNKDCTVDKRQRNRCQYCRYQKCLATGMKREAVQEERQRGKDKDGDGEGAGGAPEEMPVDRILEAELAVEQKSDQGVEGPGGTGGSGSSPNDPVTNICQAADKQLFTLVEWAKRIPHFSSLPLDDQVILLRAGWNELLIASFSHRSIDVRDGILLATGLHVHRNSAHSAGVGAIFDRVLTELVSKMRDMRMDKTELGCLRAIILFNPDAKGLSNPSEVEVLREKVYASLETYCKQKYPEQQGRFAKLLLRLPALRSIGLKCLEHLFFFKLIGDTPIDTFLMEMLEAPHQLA
UniProt Q92503: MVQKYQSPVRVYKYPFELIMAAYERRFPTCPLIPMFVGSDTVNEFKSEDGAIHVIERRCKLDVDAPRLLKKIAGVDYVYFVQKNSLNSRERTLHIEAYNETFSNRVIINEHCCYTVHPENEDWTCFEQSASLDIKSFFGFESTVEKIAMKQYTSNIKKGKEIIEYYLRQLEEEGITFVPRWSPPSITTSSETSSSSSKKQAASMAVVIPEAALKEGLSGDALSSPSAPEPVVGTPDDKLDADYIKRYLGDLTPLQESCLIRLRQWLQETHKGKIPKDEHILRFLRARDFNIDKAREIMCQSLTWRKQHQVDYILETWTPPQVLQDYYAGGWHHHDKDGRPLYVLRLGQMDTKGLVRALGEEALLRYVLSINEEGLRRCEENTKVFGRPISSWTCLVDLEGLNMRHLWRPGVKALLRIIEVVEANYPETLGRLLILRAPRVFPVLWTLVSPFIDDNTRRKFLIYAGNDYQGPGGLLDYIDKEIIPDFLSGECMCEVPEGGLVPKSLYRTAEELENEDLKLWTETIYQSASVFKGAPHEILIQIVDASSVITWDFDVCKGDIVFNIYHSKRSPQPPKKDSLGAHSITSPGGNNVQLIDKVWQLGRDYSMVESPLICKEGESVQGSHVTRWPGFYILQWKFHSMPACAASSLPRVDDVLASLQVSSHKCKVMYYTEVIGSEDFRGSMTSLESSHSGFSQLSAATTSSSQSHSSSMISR
UniProt O00560: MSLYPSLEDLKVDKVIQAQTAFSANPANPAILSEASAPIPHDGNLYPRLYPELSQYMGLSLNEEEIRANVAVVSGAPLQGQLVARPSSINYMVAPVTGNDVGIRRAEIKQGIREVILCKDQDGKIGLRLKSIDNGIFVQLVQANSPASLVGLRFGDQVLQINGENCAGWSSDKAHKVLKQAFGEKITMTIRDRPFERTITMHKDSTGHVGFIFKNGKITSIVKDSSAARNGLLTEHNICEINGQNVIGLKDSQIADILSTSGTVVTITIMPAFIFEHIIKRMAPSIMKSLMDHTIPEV
UniProt O94979: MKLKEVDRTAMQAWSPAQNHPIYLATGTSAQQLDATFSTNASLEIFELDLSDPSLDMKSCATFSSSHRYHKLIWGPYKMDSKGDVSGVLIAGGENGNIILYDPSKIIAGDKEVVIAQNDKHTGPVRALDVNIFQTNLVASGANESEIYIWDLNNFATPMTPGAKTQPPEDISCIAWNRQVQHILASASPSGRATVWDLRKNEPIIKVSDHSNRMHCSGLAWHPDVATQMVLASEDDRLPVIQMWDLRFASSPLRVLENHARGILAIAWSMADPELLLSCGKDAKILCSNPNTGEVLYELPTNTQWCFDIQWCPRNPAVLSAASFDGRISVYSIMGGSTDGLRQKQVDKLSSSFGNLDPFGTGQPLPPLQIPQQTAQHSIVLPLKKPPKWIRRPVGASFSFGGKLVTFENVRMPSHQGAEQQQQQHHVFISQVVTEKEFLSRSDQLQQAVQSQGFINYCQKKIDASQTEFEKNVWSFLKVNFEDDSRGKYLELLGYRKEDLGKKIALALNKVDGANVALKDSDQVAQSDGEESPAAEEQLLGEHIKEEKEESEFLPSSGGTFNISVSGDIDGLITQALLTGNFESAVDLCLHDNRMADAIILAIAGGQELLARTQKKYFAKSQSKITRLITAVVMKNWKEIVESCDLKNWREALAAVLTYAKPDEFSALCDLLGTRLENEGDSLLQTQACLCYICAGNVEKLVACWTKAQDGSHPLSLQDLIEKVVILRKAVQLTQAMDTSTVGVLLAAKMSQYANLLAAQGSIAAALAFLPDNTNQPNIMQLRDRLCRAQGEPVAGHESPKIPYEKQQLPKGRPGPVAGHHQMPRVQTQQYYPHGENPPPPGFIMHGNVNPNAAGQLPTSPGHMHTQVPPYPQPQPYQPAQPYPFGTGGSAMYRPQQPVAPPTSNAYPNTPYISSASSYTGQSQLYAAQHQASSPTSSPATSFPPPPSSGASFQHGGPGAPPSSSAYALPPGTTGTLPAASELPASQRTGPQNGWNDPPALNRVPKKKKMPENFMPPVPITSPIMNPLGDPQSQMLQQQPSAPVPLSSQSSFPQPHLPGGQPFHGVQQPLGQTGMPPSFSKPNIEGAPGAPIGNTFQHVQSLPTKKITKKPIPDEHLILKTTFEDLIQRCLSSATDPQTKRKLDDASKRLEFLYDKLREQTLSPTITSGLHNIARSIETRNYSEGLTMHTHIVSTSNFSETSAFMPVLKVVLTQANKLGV
UniProt Q9NRG7: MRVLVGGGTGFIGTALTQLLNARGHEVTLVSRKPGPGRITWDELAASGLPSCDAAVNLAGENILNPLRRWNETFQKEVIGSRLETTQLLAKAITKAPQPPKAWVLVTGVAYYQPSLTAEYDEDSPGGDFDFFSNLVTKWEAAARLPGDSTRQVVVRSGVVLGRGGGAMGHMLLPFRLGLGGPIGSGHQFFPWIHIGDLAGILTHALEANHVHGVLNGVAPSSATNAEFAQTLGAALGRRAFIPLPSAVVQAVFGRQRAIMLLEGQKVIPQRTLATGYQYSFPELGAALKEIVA
UniProt O15027: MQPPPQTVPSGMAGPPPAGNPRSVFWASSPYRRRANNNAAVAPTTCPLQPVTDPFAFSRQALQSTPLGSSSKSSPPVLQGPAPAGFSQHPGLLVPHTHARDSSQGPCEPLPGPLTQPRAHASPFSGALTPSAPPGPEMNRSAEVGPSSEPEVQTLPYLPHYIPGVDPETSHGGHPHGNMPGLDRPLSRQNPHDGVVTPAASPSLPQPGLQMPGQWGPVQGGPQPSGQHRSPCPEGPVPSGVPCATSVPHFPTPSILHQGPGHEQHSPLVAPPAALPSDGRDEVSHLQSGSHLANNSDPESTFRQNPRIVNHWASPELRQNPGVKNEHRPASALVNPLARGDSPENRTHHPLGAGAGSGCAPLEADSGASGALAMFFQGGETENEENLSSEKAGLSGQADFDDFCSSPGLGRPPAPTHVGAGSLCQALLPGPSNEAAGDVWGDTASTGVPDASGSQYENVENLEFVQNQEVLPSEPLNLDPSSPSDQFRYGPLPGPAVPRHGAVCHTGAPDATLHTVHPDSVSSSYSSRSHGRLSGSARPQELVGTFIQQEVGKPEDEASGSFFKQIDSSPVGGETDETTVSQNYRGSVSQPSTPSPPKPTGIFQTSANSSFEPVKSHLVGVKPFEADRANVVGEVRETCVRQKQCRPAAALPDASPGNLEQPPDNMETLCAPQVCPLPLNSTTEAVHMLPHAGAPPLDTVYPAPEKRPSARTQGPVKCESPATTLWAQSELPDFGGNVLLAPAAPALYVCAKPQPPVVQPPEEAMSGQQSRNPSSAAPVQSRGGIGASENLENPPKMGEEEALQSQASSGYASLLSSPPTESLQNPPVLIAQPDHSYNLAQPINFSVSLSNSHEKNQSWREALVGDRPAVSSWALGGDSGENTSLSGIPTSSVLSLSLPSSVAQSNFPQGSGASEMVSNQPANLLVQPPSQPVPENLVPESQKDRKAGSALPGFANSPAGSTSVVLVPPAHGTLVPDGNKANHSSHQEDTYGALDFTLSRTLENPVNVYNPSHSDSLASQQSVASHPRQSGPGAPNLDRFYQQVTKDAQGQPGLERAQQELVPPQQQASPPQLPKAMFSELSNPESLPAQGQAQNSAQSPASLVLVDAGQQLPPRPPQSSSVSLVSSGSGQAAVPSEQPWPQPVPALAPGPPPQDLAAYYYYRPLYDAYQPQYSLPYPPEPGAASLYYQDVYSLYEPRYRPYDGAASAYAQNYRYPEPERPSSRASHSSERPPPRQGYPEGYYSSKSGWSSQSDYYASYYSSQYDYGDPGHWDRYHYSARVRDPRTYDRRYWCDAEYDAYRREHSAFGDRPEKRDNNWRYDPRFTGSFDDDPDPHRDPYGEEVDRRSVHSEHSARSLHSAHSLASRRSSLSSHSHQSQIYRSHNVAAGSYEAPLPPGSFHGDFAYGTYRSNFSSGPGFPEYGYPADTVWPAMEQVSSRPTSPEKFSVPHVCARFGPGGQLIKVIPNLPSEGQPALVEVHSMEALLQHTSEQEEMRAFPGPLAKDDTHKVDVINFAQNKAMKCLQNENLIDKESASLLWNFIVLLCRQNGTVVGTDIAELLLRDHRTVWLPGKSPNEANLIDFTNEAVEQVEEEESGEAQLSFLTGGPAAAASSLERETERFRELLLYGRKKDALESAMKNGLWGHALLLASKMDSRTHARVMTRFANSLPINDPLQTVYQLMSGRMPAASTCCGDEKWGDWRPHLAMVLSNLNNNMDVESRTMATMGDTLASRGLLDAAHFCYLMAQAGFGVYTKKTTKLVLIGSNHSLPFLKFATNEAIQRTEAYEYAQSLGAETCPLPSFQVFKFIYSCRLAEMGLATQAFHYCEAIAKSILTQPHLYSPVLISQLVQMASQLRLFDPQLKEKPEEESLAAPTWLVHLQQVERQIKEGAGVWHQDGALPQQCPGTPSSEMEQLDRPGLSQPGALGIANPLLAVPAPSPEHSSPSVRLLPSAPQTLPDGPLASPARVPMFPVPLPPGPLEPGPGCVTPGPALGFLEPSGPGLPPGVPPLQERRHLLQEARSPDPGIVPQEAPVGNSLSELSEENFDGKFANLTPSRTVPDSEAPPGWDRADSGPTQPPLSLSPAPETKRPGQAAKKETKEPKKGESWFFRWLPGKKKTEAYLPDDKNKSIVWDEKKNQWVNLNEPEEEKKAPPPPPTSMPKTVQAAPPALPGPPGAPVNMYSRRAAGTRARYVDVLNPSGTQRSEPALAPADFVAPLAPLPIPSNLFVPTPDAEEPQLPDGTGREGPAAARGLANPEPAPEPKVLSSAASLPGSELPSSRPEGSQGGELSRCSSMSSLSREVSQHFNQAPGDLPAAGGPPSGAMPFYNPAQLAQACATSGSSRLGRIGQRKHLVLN

Legend:
Assay in all cases: log2 fold change, soluble protein after heating vs DMSO (PISA); higher = thermal stabilisation; K562 cells, 10 uM, 30 min; active = over 0.2 and 3.5 SD of the protein, either way, in both replicates (recomputed)
[1] = compound: CS(=O)(=O)c1ccc(-c2cnc(N)c(C(=O)Nc3ccccc3)n2)cc1
Summary of the method: (§1)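 Values are thermal stability changes relative to control samples and are taken from duplicates. They are stated as log2 fold changes. Before quantification by TMTpro 16plex LC-MS/MS with equalised channel sums, K562 cells at 2×10^6 cells/mL were treated with 10 μM compound for 30 min, heated in aliquots for 3 min across 48°C-58°C, pooled, extracted in PBS with 0.5% NP-40 at 4°C, and centrifuged at 21,000xg for 90 min to give the soluble supernatant.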

[2] = compound: C[C@@H](Oc1cc(-c2cnn(C3CCNCC3)c2)cnc1N)c1c(Cl)ccc(F)c1Cl [crizotinib]
Summary of the method: as §1

[3] = compound: C[C@@H]1COCCN1C2=NC(=NC(=C2)C3(CC3)S(=O)(=O)C)C4=C5C=CNC5=CC=C4
Summary of the method: as §1

[4] = compound: Cc1cc(Nc2cc(CN3CCOCC3)c3nc(C)c(Cc4ccc(Cl)cc4F)n3n2)n[nH]1 [gandotinib]
Summary of the method: as §1

[5] = compound: Cc1cc(SCc2sc(-c3ccc(C(F)(F)F)cc3)nc2C)ccc1OCC(=O)O
Summary of the method: as §1

[6] = compound: Cc1ccc(-n2nc(C(C)(C)C)cc2NC(=O)Nc2ccc(OCCN3CCOCC3)c3ccccc23)cc1 [doramapimod]
Summary of the method: as §1

[7] = compound: Cc1ccc(C(=O)N(CCCN)[C@@H](c2nc3cc(Cl)ccc3c(=O)n2Cc2ccccc2)C(C)C)cc1 [ispinesib]
Summary of the method: as §1

[8] = compound: Cc1cc(Nc2cc(N3CCN(C)CC3)nc(Sc3ccc(NC(=O)C4CC4)cc3)n2)n[nH]1 [tozasertib]
Summary of the method: as §1

[9] = compound: C[C@H](C1=CC=C(C=C1)C(=O)NC2=C3C=CNC3=NC=C2)N
Summary of the method: as §1

[10] = compound: C[C@H](Nc1ncnc2nc[nH]c12)c1cc2cccc(Cl)c2c(=O)n1-c1ccccc1 [duvelisib]
Summary of the method: as §1

## RUNX1 isoform 8 (UniProt Q01196)
[1]
  log2 fold change: inactive: 0.106
[2]
  log2 fold change: inactive: -0.066
[3]
  log2 fold change: inactive: 0.089
[4]
  log2 fold change: inactive: 0.088
[5]
  log2 fold change: inactive: 0.178
[6]
  log2 fold change: inactive: 0.054
[7]
  log2 fold change: inactive: 0.155

## SCGB2A2 (UniProt Q13296)
[1]
  log2 fold change: inactive: -0.123
[2]
  log2 fold change: inactive: 0.585
[3]
  log2 fold change: inactive: 0.064
[4]
  log2 fold change: inactive: -0.282
[8]
  log2 fold change: inactive: 0.276
[6]
  log2 fold change: inactive: -0.162

## RXRB isoform 3 (UniProt P28702)
[1]
  log2 fold change: inactive: 0.141
[3]
  log2 fold change: inactive: 0.06

## SEC14L1 isoform 2 (UniProt Q92503)
[1]
  log2 fold change: inactive: 0.068
[3]
  log2 fold change: inactive: 0.055
[9]
  log2 fold change: inactive: 0.176
[10]
  log2 fold change: inactive: 0.162
[4]
  log2 fold change: inactive: 0.21
[8]
  log2 fold change: inactive: 0.004
[5]
  log2 fold change: inactive: 0.065

## SDCBP (UniProt O00560)
[1]
  log2 fold change: inactive: -0.003
[2]
  log2 fold change: inactive: -0.216
[3]
  log2 fold change: inactive: 0.101
[9]
  log2 fold change: inactive: -0.043
[4]
  log2 fold change: inactive: 0.094
[5]
  log2 fold change: inactive: 0.086
[6]
  log2 fold change: inactive: -0.006
[7]
  log2 fold change: active: -0.361

## SEC31A (UniProt O94979)
[1]
  log2 fold change: inactive: 0.045
[2]
  log2 fold change: inactive: -0.011
[3]
  log2 fold change: inactive: 0.007
[9]
  log2 fold change: inactive: 0.084
[4]
  log2 fold change: inactive: -0.158
[5]
  log2 fold change: inactive: 0.064
[6]
  log2 fold change: inactive: 0
[7]
  log2 fold change: inactive: 0.034

## SDR39U1 (UniProt Q9NRG7)
[1]
  log2 fold change: inactive: 0.863
[3]
  log2 fold change: inactive: 0.177
[9]
  log2 fold change: inactive: 0.202
[10]
  log2 fold change: inactive: -0.009
[4]
  log2 fold change: inactive: 0.474
[8]
  log2 fold change: inactive: 0.428
[5]
  log2 fold change: inactive: 0.02

## SEC16A isoform 5 (UniProt O15027)
[1]
  log2 fold change: inactive: -0.032
[2]
  log2 fold change: inactive: -0.231
[3]
  log2 fold change: inactive: -0.113
[9]
  log2 fold change: inactive: 0.143
[4]
  log2 fold change: inactive: 0.087
[5]
  log2 fold change: inactive: 0.118
[6]
  log2 fold change: inactive: 0.023
[7]
  log2 fold change: inactive: -0.119
